# The supplement of paper PMC12819154, “High-throughput peptide-centric local stability assay extends protein–ligand identification to membrane proteins, tissues and bacteria” (Nature Structural & Molecular Biology, 2025)
# By UniProt entry, the sequences of proteins in these tests, tags left out. Where a name states a change or a piece, a line headed by the entry shows the natural chain unless it says otherwise.
# UniProt Q9ULK5: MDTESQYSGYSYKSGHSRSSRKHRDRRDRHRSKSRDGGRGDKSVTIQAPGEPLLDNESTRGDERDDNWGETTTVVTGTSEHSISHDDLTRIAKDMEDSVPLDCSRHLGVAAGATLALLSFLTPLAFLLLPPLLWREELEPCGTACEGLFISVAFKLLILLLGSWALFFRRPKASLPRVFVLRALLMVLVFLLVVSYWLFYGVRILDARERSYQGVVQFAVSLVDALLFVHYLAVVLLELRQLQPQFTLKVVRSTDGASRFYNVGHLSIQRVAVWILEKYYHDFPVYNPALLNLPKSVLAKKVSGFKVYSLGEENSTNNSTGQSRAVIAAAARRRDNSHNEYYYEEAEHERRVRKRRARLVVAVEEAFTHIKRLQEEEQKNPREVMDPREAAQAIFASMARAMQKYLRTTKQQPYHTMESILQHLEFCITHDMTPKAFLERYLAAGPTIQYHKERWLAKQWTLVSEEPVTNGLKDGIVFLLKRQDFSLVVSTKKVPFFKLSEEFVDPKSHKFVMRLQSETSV
# UniProt Q9UNY4: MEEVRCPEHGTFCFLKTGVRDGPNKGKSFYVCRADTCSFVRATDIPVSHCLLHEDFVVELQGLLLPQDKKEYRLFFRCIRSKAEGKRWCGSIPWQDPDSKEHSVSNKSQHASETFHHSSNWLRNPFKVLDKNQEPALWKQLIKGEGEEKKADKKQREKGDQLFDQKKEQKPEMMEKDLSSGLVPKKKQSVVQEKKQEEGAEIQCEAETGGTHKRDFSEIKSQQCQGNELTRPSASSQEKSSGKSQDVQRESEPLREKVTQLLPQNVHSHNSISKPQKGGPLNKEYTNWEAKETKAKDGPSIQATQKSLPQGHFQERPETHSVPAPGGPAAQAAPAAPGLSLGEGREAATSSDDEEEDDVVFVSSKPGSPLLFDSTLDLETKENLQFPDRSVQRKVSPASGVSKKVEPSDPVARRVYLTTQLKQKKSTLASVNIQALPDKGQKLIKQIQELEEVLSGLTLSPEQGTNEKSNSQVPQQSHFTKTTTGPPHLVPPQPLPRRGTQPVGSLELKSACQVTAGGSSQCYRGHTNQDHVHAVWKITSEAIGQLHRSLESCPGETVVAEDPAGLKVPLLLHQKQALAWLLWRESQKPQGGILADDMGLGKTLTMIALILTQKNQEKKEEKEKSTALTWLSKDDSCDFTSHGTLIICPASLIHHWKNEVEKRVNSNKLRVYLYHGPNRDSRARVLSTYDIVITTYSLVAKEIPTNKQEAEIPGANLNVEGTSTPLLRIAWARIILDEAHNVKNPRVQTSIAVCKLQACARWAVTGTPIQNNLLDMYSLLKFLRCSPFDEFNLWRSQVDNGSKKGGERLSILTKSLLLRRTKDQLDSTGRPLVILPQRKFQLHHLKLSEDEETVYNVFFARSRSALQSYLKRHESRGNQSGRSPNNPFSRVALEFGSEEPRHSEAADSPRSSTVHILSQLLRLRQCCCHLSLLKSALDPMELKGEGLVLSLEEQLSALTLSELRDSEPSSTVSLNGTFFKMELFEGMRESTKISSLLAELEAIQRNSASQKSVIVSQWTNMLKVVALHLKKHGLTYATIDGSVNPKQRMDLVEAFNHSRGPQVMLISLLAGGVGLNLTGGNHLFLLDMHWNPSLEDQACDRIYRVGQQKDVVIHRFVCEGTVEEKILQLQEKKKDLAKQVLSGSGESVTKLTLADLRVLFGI
# UniProt Q9ULI0: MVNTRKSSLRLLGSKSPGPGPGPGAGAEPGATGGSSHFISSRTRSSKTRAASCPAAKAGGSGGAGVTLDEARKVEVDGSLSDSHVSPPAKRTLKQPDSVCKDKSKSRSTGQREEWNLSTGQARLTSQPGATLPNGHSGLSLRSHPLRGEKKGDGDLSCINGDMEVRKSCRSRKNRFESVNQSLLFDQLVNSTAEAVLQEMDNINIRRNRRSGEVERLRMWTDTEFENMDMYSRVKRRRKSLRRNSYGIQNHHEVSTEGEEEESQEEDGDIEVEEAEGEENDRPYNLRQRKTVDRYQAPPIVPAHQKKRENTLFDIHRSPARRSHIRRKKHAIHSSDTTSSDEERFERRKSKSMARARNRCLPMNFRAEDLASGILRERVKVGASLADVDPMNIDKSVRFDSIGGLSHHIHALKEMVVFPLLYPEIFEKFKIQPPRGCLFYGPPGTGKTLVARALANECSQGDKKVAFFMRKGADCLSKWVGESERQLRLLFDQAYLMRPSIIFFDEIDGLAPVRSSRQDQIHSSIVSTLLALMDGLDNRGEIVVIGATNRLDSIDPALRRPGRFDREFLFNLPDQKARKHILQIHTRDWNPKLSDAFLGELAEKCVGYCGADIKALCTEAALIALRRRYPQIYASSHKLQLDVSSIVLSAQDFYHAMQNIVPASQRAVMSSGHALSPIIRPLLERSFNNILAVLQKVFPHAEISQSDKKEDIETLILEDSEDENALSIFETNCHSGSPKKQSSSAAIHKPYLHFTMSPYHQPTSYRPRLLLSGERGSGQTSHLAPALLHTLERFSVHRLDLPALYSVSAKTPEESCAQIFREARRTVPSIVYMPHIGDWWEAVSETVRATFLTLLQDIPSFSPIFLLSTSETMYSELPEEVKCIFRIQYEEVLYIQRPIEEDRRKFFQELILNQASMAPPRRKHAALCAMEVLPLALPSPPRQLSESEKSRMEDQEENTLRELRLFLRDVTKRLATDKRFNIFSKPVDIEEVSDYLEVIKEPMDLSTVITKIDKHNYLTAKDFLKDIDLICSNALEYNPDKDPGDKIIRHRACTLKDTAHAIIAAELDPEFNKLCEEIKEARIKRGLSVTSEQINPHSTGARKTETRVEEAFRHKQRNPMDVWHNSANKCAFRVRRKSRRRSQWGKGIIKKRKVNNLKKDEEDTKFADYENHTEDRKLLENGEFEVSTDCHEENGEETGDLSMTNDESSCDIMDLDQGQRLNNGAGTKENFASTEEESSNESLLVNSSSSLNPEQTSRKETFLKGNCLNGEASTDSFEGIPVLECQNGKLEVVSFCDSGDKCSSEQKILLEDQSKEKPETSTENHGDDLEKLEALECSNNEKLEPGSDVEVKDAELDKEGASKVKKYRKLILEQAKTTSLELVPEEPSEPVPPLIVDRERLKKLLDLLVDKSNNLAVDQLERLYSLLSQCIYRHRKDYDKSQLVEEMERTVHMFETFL
# UniProt Q9UNH5: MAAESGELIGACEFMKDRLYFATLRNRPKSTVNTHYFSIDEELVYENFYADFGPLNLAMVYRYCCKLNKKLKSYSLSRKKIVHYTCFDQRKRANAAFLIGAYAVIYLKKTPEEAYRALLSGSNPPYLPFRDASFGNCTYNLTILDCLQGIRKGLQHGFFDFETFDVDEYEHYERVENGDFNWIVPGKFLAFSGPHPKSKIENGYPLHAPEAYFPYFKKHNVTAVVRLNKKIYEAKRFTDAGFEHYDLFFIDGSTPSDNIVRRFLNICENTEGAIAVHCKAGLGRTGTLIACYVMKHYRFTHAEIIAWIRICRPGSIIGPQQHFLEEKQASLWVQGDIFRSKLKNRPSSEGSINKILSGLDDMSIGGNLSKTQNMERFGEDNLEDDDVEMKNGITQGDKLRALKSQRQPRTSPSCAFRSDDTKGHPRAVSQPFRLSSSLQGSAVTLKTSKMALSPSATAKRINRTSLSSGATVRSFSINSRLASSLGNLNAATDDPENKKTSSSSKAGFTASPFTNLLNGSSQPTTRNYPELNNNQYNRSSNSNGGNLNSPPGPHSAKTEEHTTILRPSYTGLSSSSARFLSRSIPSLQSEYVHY
# UniProt Q9UKT7: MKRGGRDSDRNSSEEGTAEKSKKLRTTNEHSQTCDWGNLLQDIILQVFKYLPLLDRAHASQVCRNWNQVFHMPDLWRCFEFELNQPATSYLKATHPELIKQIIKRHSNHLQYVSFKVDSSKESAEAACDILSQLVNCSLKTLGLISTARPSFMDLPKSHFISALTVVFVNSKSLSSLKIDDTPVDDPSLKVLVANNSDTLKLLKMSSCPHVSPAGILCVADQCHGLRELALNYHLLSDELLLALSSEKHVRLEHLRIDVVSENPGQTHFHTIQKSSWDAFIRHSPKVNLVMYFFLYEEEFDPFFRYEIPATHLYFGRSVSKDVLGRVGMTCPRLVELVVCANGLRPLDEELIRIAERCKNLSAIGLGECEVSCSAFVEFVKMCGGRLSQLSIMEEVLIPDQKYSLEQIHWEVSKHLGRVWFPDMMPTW
# UniProt Q9UPS6, whole entry: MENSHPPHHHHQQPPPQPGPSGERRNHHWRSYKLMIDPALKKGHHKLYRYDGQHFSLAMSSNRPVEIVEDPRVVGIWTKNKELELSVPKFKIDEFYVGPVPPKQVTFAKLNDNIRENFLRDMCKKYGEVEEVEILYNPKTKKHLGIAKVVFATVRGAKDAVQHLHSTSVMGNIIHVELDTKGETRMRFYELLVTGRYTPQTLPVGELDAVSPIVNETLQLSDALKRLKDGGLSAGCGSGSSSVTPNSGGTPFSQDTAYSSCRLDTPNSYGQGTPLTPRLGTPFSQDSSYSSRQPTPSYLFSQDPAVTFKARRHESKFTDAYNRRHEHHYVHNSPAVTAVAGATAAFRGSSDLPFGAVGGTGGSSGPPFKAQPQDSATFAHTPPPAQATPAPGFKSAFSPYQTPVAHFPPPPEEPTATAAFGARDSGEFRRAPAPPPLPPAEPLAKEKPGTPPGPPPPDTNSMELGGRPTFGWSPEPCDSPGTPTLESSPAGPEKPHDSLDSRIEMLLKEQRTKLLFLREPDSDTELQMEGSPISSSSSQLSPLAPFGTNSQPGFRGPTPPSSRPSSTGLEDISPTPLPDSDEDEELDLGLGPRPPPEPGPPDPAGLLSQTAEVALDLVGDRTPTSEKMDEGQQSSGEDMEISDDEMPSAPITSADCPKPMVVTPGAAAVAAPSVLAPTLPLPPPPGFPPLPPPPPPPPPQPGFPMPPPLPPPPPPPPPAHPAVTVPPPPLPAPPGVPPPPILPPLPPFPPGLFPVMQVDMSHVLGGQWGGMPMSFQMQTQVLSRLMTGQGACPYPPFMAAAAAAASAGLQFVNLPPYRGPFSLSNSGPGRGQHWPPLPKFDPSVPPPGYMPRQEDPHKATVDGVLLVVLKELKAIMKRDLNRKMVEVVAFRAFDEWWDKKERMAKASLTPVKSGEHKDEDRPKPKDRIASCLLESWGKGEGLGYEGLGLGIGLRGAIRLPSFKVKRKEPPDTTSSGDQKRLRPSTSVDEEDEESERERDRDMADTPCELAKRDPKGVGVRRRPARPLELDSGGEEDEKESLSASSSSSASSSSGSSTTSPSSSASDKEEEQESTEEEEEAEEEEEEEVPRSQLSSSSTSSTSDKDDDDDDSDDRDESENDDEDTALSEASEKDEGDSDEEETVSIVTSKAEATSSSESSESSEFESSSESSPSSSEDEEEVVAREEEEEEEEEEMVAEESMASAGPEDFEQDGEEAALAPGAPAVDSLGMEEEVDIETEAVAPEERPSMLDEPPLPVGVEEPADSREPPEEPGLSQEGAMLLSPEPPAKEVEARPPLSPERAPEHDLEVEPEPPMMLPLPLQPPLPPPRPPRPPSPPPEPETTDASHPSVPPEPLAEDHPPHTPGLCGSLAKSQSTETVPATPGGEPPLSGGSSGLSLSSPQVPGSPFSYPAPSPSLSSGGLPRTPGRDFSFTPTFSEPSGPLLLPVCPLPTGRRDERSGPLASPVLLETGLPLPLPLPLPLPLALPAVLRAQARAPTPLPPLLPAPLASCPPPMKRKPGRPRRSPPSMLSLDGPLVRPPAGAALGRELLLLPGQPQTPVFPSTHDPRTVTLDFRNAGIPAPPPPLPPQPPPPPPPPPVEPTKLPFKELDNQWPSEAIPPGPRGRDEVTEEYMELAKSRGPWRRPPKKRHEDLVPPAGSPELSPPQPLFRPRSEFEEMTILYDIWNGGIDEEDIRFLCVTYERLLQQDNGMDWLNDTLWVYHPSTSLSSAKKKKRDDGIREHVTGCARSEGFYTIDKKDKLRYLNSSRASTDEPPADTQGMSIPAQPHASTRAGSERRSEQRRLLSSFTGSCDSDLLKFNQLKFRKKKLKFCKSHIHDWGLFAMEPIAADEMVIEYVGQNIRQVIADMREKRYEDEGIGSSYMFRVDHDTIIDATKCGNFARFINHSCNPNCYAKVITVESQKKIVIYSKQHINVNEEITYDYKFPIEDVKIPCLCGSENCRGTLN
# UniProt Q9UKY7: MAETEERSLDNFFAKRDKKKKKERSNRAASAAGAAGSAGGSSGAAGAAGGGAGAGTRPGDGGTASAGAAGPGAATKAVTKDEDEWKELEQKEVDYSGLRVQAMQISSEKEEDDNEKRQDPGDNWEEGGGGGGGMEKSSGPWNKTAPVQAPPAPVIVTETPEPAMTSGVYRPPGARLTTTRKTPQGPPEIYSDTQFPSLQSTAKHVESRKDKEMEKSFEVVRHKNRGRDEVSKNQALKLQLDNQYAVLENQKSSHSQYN
# The other results are listed elsewhere or left out. Small differences around the control level are noise.
# Compound: CN[C@@H]1C[C@H]2O[C@@](C)([C@@H]1OC)n1c3ccccc3c3c4c(c5c6ccccc6n2c5c31)C(=O)NC4 [staurosporine]
# Assay: log2 fold change of tryptic peptide abundance, ligand vs vehicle (limited proteolysis) (log2 ratio); higher = more trypsin-susceptible (destabilized)
# Details: ligand concentration: 20 uM; sample: K562 cleared lysate; digestion: 4 min, 22 C (HT-PELSA RT4min, Orbitrap Astral)
row,Target,log2 fold change
1,"KLHL20 (peptide sequence: CTNIRPGETGMDVTSR, peptide start residue: 9) (UniProt Q9Y2M5)",0.604
2,"CDC42EP3 (peptide sequence: LSCEPVMEEK, peptide start residue: 143) (UniProt Q9UKI2)",0.329
3,"UniProt Q9UQ05 (peptide sequence: IVDGIEDSGSTAEAPSFR, peptide start residue: 827)",0.00267
4,"STUB1 (peptide sequence: VGHFDPVTR, peptide start residue: 264) (UniProt Q9UNE7)",0.168
5,"ZBTB1 (peptide sequence: KSSTVESEIASEEK, peptide start residue: 303) (UniProt Q9Y2K1)",0.168
6,"VANGL2 (peptide sequence: LQEEEQK, peptide start residue: 694) (UniProt Q9ULK5)",-0.045
7,"TTF2 (peptide sequence: QVLSGSGESVTK, peptide start residue: 1139) (UniProt Q9UNY4)",-0.193
8,"UniProt Q9Y2A4 (peptide sequence: AFVYPSVFQR, peptide start residue: 401)",-0.0254
9,"POLI (peptide sequence: DKPLGVQQK, peptide start residue: 77) (UniProt Q9UNA4)",0.177
10,"LRCH1 (peptide sequence: NLESIDPQFTIRR, peptide start residue: 559) (UniProt Q9Y2L9)",0.272
11,"ATAD2B (peptide sequence: GLSVTSEQINPHSTGAR, peptide start residue: 1086) (UniProt Q9ULI0)",0.271
12,"PLAA (peptide sequence: ELSHATIDSK, peptide start residue: 316) (UniProt Q9Y263)",0.76
13,"SAMD4A (peptide sequence: TLLDISGYR, peptide start residue: 560) (UniProt Q9UPU9)",0.149
14,"NUDC (peptide sequence: GKDMVVDIQRR, peptide start residue: 195) (UniProt Q9Y266)",0.525
15,"CDC14A (peptide sequence: MALSPSATAK, peptide start residue: 450) (UniProt Q9UNH5)",0.243
16,"UniProt Q9Y2K5 (peptide sequence: TEADKLFTQLAMSGAK, peptide start residue: 881)",-0.202
17,"SLC7A11 (peptide sequence: LPSLGNKEPPGQEK, peptide start residue: 24) (UniProt Q9UPY5)",-0.696
18,"UniProt Q9UKT7 (peptide sequence: TLGLISTARPSFMDLPK, peptide start residue: 141)",0.417
19,"MAPRE3 (peptide sequence: LSNVAPPCILRKNPPSAR, peptide start residue: 175) (UniProt Q9UPY8)",1.33
20,"SETD1B (peptide sequence: FTDAYNR, peptide start residue: 317) (UniProt Q9UPS6)",-0.232
21,"CDV3 (peptide sequence: LQLDNQYAVLENQK, peptide start residue: 238) (UniProt Q9UKY7)",-0.136
22,"RCL1 (peptide sequence: IETKPCGEELK, peptide start residue: 341) (UniProt Q9Y2P8)",-1.28
23,"TMEM98 (peptide sequence: LVAMTMGSGAK, peptide start residue: 108) (UniProt Q9Y2Y6)",0.11
24,"MTO1 (peptide sequence: LKIEATYESVLFHQLQEIK, peptide start residue: 607) (UniProt Q9Y2Z2)",0.268
25,"UniProt Q9Y2I7 (peptide sequence: LQDLFQQEK, peptide start residue: 1508)",-0.431

# Excerpt, nos. 21–24
row,Target,log2 fold change
21,"CDV3 (peptide sequence: LQLDNQYAVLENQK, peptide start residue: 238) (UniProt Q9UKY7)",-0.136
22,"RCL1 (peptide sequence: IETKPCGEELK, peptide start residue: 341) (UniProt Q9Y2P8)",-1.28
23,"TMEM98 (peptide sequence: LVAMTMGSGAK, peptide start residue: 108) (UniProt Q9Y2Y6)",0.11
24,"MTO1 (peptide sequence: LKIEATYESVLFHQLQEIK, peptide start residue: 607) (UniProt Q9Y2Z2)",0.268
